No constants are given. Whether binding was seen depends on the method and setting. In cells and extracts the contact can be indirect. A yes stands for co-enrichment or nearness to the bait. Other partners may have been found. Where a sequence is shown, tags or fusion partners need not be part of it.
Molecular target: T1, recombinant purified His-tagged human BAF (H6BAF) dimers (human) (UniProt O75531)
T1 sequence: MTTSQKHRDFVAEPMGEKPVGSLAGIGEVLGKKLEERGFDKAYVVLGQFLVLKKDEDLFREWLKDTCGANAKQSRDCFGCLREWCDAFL
Experiment: affinity purification with mass spectrometry; 30 µg H6BAF dimers on Ni-NTA beads, 500 µg pre-cleared HeLa nuclear lysate (benzonase-treated), 3 hrs 4°C; eluted with 0.3 M then 1 M NaCl; LC-MS/MS of eluates; Ni beads alone as control; only the target purified

Amino acid sequences for entries named in this document (tags omitted).
UniProt Q14839: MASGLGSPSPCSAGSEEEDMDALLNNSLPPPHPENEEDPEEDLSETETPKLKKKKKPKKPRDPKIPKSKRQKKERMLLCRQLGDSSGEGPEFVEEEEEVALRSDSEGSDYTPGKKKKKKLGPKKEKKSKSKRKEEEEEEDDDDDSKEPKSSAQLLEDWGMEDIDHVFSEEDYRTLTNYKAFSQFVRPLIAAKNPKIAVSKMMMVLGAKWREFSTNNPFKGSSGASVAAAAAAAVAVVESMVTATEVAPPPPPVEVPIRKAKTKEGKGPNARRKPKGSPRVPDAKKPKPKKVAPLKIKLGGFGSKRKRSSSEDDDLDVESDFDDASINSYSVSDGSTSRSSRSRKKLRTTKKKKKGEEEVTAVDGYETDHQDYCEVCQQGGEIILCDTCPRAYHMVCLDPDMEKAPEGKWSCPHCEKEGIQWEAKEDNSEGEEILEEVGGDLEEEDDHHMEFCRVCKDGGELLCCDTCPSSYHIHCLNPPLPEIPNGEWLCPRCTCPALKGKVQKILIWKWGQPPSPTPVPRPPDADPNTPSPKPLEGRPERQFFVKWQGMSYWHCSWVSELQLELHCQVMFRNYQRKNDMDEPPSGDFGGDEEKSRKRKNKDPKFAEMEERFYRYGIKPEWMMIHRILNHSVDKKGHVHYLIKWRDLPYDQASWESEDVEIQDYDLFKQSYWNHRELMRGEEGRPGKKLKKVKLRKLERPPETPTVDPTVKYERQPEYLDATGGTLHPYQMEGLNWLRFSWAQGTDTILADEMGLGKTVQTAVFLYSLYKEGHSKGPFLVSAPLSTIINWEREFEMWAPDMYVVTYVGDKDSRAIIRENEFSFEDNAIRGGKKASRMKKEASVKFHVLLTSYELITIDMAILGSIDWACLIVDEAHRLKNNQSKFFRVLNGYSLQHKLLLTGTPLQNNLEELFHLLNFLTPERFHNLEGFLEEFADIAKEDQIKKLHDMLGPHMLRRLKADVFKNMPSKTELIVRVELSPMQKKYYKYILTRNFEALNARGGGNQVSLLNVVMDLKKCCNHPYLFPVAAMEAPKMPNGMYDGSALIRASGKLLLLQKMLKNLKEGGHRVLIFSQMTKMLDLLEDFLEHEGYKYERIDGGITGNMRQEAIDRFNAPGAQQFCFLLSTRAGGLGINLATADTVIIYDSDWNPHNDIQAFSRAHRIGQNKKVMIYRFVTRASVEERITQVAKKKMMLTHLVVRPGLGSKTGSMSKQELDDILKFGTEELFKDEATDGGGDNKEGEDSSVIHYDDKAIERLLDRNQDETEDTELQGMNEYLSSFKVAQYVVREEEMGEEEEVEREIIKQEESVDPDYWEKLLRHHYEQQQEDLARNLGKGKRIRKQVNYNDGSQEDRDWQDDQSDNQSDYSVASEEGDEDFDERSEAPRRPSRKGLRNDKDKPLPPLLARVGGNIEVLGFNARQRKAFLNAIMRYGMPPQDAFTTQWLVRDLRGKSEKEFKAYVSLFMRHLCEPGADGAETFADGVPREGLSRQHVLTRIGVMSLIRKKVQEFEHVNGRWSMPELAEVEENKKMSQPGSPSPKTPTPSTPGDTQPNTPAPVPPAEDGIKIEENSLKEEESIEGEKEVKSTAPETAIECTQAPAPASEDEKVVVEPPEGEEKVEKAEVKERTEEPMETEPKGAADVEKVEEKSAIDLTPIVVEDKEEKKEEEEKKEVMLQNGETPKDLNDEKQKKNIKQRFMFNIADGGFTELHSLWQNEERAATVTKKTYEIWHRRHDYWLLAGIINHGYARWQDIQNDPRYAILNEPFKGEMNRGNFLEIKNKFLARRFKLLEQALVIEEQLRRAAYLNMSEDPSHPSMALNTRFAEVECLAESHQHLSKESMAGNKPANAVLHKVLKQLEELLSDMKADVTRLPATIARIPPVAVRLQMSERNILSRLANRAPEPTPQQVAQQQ
UniProt P04264: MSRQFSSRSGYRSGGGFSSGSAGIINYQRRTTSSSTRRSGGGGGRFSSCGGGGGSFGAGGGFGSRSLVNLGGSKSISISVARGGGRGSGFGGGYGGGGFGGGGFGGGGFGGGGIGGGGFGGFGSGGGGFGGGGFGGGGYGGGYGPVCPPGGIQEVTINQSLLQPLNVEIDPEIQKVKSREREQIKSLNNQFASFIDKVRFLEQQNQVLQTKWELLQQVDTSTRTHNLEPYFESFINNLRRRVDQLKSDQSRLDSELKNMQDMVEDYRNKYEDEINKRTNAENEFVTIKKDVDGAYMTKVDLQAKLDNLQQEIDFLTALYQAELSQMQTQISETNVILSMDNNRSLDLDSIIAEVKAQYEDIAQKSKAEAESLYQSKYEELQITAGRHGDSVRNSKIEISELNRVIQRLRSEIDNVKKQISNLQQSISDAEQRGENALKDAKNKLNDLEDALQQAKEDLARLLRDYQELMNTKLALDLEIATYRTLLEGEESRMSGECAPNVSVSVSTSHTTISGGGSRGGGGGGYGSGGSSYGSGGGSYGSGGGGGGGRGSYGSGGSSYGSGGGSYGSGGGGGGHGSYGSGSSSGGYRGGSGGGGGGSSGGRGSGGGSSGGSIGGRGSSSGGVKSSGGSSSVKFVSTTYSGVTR
UniProt P62318: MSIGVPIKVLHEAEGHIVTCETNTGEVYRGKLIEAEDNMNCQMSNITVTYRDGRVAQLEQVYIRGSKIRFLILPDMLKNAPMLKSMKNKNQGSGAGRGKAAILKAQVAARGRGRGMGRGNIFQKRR
UniProt P09874: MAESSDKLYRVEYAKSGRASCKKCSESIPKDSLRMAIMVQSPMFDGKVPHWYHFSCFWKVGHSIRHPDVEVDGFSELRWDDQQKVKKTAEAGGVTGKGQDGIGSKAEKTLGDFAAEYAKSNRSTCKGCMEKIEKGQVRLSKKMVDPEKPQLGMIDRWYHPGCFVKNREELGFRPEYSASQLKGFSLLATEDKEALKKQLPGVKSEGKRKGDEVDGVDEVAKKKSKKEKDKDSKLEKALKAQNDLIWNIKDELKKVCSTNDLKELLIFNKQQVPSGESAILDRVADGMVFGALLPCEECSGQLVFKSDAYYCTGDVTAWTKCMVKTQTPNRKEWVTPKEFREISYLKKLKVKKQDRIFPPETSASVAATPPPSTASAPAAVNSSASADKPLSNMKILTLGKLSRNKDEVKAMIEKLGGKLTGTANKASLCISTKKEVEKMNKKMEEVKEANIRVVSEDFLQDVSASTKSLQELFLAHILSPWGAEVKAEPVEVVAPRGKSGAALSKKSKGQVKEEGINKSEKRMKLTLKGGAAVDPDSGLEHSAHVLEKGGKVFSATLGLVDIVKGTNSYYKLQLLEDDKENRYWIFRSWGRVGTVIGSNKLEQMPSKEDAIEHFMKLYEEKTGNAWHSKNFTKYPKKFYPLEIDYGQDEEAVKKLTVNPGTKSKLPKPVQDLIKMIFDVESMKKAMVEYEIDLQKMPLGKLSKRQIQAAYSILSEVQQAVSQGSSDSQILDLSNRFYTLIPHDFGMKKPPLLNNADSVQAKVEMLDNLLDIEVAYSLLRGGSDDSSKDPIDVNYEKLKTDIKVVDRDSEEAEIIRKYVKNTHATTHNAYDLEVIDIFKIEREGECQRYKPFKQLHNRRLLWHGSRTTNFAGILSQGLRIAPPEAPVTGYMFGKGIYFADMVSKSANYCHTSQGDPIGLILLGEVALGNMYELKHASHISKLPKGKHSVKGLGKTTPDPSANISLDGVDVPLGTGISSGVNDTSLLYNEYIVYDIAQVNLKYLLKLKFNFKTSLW
UniProt P17096: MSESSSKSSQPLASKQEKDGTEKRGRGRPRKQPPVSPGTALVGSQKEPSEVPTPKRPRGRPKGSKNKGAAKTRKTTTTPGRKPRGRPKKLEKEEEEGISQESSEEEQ
UniProt Q9C005: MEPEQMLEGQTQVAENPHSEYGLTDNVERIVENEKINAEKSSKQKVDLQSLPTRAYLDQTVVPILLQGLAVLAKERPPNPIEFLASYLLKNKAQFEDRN
UniProt P21333: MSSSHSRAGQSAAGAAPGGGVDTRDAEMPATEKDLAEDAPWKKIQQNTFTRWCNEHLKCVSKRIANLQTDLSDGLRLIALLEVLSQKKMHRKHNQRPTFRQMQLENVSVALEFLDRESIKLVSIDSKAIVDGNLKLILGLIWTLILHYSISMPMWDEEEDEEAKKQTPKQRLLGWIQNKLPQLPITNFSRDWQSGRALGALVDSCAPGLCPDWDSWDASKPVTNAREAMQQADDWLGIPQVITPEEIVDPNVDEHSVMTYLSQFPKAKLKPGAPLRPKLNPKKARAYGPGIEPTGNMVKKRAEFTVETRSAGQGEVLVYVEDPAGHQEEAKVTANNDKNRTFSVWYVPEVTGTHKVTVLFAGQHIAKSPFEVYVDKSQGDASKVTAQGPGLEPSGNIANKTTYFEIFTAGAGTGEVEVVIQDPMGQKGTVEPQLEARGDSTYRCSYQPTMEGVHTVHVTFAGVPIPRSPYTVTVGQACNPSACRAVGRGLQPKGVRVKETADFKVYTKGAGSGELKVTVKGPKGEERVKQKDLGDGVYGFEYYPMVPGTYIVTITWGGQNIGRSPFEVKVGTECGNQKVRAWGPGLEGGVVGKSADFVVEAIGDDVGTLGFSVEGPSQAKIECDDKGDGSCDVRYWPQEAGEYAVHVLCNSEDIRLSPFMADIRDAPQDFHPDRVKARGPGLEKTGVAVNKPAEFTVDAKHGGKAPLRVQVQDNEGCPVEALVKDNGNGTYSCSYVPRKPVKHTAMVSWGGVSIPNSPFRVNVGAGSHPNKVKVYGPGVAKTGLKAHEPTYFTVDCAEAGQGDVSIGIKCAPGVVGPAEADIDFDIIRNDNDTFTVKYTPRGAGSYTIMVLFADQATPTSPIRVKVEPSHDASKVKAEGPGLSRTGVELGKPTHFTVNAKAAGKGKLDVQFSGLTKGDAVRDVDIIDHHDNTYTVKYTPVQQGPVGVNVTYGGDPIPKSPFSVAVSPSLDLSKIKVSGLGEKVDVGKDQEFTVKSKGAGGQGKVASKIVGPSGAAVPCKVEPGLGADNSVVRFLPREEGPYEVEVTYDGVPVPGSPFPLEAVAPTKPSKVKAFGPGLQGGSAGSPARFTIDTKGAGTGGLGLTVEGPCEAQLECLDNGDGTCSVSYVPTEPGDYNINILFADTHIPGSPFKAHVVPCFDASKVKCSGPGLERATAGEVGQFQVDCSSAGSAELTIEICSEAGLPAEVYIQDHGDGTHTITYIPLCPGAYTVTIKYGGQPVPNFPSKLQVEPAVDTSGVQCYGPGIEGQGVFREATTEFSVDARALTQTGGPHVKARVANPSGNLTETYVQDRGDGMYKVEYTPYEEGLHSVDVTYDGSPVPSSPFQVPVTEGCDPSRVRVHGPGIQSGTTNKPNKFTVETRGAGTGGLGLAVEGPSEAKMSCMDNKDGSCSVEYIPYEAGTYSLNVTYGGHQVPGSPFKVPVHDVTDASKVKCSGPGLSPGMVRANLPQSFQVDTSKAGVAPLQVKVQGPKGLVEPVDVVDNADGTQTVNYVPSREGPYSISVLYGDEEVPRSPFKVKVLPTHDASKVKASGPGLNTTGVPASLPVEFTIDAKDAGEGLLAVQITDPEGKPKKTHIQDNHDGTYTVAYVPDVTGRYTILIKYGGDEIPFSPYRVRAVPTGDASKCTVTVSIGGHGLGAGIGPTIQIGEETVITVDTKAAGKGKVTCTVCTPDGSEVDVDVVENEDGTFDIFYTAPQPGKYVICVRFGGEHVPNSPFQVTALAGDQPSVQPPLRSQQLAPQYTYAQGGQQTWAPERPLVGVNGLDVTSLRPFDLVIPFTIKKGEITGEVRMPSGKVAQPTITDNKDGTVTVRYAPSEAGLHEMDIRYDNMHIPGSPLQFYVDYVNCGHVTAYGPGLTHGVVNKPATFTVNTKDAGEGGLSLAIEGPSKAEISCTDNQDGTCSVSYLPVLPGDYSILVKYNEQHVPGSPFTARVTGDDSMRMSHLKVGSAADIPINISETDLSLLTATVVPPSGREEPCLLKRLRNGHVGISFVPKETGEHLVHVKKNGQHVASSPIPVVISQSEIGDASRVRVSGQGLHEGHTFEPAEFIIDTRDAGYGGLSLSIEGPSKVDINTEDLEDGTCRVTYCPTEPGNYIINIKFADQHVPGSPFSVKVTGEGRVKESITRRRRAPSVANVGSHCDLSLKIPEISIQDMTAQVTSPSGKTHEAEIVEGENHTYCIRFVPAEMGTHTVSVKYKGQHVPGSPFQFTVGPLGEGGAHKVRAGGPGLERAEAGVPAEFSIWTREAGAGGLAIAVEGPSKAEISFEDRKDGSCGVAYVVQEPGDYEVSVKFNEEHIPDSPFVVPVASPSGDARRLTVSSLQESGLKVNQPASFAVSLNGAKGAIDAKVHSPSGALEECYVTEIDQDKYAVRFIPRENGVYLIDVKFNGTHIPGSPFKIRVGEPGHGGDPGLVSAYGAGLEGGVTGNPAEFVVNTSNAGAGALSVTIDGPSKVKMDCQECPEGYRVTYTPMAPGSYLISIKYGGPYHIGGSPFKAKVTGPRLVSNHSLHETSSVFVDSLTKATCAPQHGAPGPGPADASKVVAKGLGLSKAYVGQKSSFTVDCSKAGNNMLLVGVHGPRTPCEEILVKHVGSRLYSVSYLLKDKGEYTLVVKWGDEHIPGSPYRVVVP

| Molecule | binding |
| --- | --- |
| SMARCA2/BAF190 (from UniProt P51531 1-1590) | binds |
| HP1 alpha/CBX5 (from UniProt P45973 1-191) | binds |
| Euchromatic histone-lysine N-methyltransferase 2 isoform a (EHMT2) (from UniProt Q96KQ7 1-1210) | binds |
| GATA zinc finger domain containing 2B (from UniProt Q8WXI9 1-593) | binds |
| Chromatin-specific transcription elongation factor large subunit (from UniProt Q9Y5B9 1-1047) | binds |
| Chromodomain helicase DNA binding protein 4 (from UniProt Q14839 1-1912) | binds |
| Aprataxin (from UniProt Q7Z2E3 1-356) | binds |
| B-cell CLL/lymphoma 7 protein family member C (from UniProt Q8WUZ0 1-217) | binds |
| Mediator of DNA damage checkpoint 1 (from UniProt Q14676 1-2089) | binds |
| LOC690956 (human (endogenous in HeLa)) | binds |
| Damage-specific DNA binding protein 2 (from UniProt Q92466 1-427) | binds |
| SMARCE1/BAF57 (from UniProt Q969G3 1-411) | binds |
| Desmoplakin I (DSP) (from UniProt P15924 1-2871) | binds |
| Keratin 1 (from UniProt P04264 1-644) | binds |
| retinoblastoma binding protein 4 (from UniProt Q09028 1-425) | binds |
| Small nuclear ribonucleoprotein D3 (from UniProt P62318 1-126) | binds |
| Pyruvate kinase 3 (from UniProt P14618 1-531) | binds |
| Damage-specific DNA binding protein 1 (from UniProt Q16531 1-1140) | binds |
| Keratin 6A (from UniProt P02538 1-564) | binds |
| Type I keratin 16 (from UniProt P08779 1-473) | binds |
| structure specific recognition protein 1 (from UniProt Q08945 1-709) | binds |
| Probable transcription factor requiem (from UniProt Q92785 1-391) | binds |

| Molecule | binding |
| --- | --- |
| Lamin B1 (from UniProt P20700 1-586) | binds |
| HP1 beta/CBX1 (from UniProt P83916 1-185) | binds |
| histone deacetylase 1 (from UniProt Q13547 1-482) | binds |
| poly(ADP-ribose) polymerase 1 (from UniProt P09874 1-1014) | binds |
| actin-like 6A/BAF53a (from UniProt O96019 1-429) | binds |
| Tektin 1 (from UniProt Q969V4 1-418) | binds |
| Cytochrome C oxidase, Chain F (human (endogenous in HeLa)) | binds |
| LEDGF/p75 (from UniProt O75475 1-530) | binds |
| High mobility group AT-hook 1 (from UniProt P17096 1-107) | binds |
| nuclear mitotic apparatus protein 1 (from UniProt Q14980 1-2115) | binds |
| Dpy-30-like protein (from UniProt Q9C005 1-99) | binds |
| RECQL/RecQ1 (from UniProt P46063 1-649) | binds |
| Filamin alpha (from UniProt P21333 1-2647) | binds |
| HP1 gamma/CBX3 (from UniProt Q13185 1-183) | binds |
| Keratin 5 (from UniProt P13647 1-590) | binds |
| XP_573984 (human (endogenous in HeLa)) | binds |
| SMARCC2/BAF170 (from UniProt Q8TAQ2 1-1214) | binds |
| TMPO/LAP2 (human (endogenous in HeLa)) | binds |
| ACIN1 (apoptotic chromatin condensation inducer 1) homolog (protein, UniProt Q9UKV3 1-1341) MWRRKHPRTSGGTRGVLSGNRGVEYGSGRGHLGTFEGRWRKLPKMPEAVGTDPSTSRKMAELEEVTLDGKPLQALRVTDLKAALEQRGLAKSGQKSALVKRLKGALMLENLQKHSTPHAAFQPNSQIGEEMSQNSFIKQYLEKQQELLRQRLEREAREAAELEEASAESEDEMIHPEGVASLLPPDFQSSLERPELELSRHSPRKSSSISEEKGDSDDEKPRKGERRSSRVRQARAAKLSEGSQPAEEEEDQETPSRNLRVRADRNLKTEEEEEEEEEEEEDDEEEEGDDEGQKSREAPILKEFKEEGEEIPRVKPEEMMDERPKTRSQEQEVLERGGRFTRSQEEARKSHLARQQQEKEMKTTSPLEEEEREIKSSQGLKEKSKSPSPPRLTEDRKKASLVALPEQTASEEETPPPLLTKEASSPPPHPQLHSEEEIEPMEGPAPAVLIQLSPPNTDADTRELLVSQHTVQLVGGLSPLSSPSDTKAESPAEKVPEESVLPLVQKSTLADYSAQKDLEPESDRSAQPLPLKIEELALAKGITEECLKQPSLEQKEGRRASHTLLPSHRLKQSADSSSSRSSSSSSSSSRSRSRSPDSSGSRSHSPLRSKQRDVAQARTHANPRGRPKMGSRSTSESRSRSRSRSRSASSNSRKSLSPGVSRDSSTSYTETKDPSSGQEVATPPVPQLQVCEPKERTSTSSSSVQARRLSQPESAEKHVTQRLQPERGSPKKCEAEEAEPPAATQPQTSETQTSHLPESERIHHTVEEKEEVTMDTSENRPENDVPEPPMPIADQVSNDDRPEGSVEDEEKKESSLPKSFKRKISVVSATKGVPAGNSDTEGGQPGRKRRWGASTATTQKKPSISITTESLKSLIPDIKPLAGQEAVVDLHADDSRISEDETERNGDDGTHDKGLKICRTVTQVVPAEGQENGQREEEEEEKEPEAEPPVPPQVSVEVALPPPAEHEVKKVTLGDTLTRRSISQQKSGVSITIDDPVRTAQVPSPPRGKISNIVHISNLVRPFTLGQLKELLGRTGTLVEEAFWIDKIKSHCFVTYSTVEEAVATRTALHGVKWPQSNPKFLCADYAEQDELDYHRGLLVDRPSETKTEEQGIPRPLHPPPPPPVQPPQHPRAEQREQERAVREQWAEREREMERRERTRSEREWDRDKVREGPRSRSRSRDRRRKERAKSKEKKSEKKEKAQEEPPAKLLDDLFRKTKAAPCIYWLPLTDSQIVQKEAERAERAKEREKRRKEQEEEEQKEREKEAERERNRQLEREKRREHSRERDRERERERERDRGDRDRDRERDRERGRERDRRDTKRHSRSRSRSTPVRDRGGRR | binds |
| Splicing factor arg/ser rich 10 (protein, UniProt P62995 1-288) MSDSGEQNYGERESRSASRSGSAHGSGKSARHTPARSRSKEDSRRSRSKSRSRSESRSRSRRSSRRHYTRSRSRSRSHRRSRSRSYSRDYRRRHSHSHSPMSTRRRHVGNRANPDPNCCLGVFGLSLYTTERDLREVFSKYGPIADVSIVYDQQSRRSRGFAFVYFENVDDAKEAKERANGMELDGRRIRVDFSITKRPHTPTPGIYMGRPTYGSSRRRDYYDRGYDRGYDDRDYYSRSYRGGGGGGGGWRAAQDRDQIYRRRSPSPYYSRGGYRSRSRSRSYSPRRY | binds |
| Limbin (protein, UniProt Q86UK5 27-1308) GRGCLGASSRPRWRPLGAQPPRDPQVAPRSGPGLRIPPGRSGAGPESSTQDLPCMIWPKVECCHFKTAVEAPLGMKLDKKMEVFIPLSTSAASSGPWAHSLFAFIPSWPKKNLFKRESPITHRLYGDISREVQGTSENGVIFQKCALVSGSSEAQTARIWLLVNNTKTTSSANLSELLLLDSIAGLTIWDSVGNRTSEGFQAFSKKFLQVGDAFAVSYAATLQAGDLGNGESLKLPAQLTFQSSSRNRTQLKVLFSITAEENVTVLPHHGLHAAGFFIAFLLSLVLTWAALFLMVRYQCLKGNMLTRHRVWQYESKLEPLPFTSADGVNEDLSLNDQMIDILSSEDPGSMLQALEELEIATLNRADADLEACRTQISKDIIALLLKNLTSSGHLSPQVERKMSAVFKKQFLLLENEIQEEYDRKMVALTAECDLETRKKMENQYQREMMAMEEAEELLKRAGERSAVECSNLLRTLHGLEQEHLRKSLALQQEEDFAKAHRQLAVFQRNELHSIFFTQIKSAIFKGELKPEAAKMLLQNYSKIQENVEELMDFFQASKRYHLSKRFGHREYLVQNLQSSETRVQGLLSTAAAQLTHLIQKHERAGYLDEDQMEMLLERAQTEVFSIKQKLDNDLKQEKKKLHQKLITKRRRELLQKHREQRREQASVGEAFRTVEDAGQYLHQKRSLMEEHGATLEELQERLDQAALDDLRTLTLSLFEKATDELRRLQNSAMTQELLKRGVPWLFLQQILEEHGKEMAARAEQLEGEERDRDQEGVQSVRQRLKDDAPEAVTEEQAELRRWEHLIFMKLCSSVFSLSEEELLRMRQEVHGCFAQMDRSLALPKIRARVLLQQFQTAWREAEFVKLDQAVAAPELQQQSKVRKSRSKSKSKGELLKKCIEDKIHLCEEQASEDLVEKVRGELLRERVQRMEAQEGGFAQSLVALQFQKASRVTETLSAYTALLSIQDLLLEELSASEMLTKSACTQILESHSRELQELERKLEDQLVQQEAAQQQQALASWQQWVADGPGILNEPGEVDSERQVSTVLHQALSKSQTLLEQHQQCLREEQQNSVVLEDLLENMEADTFATLCSQELRLASYLARMAMVPGATLRRLLSVVLPTASQPQLLALLDSATERHVDHAAESDGGAEQADVGRRRKHQSWWQALDGKLRGDLISRGLEKMLWARKRKQSILKKTCLPLRERMIFSGKGSWPHLSLEPIGELAPVPIVGAETIDLLNTGEKLFIFRNPKEPEISLHVPPRKKKNFLNAKKAMRALGMD | binds |
| ATP synthase F0 complex subunit F6, H+ transporting (protein, UniProt P18859 33-108) NKELDPIQKLFVDKIREYKSKRQTSGGPVDASSEYQQELERELFKLKQMFGNADMNTFPTFKFEDPKFEVIEKPQA | binds |

Source: publication PMC2739719
